Data: patent US20190375837A1 (priority 2017, published 2019)

Assay: general procedure: Fmoc solid-phase peptide synthesis; H-Cys(Trt)-2-CT-polystyrene resin (RAPP Polymere), pre-loaded; HATU, DIPEA
Details: conjugation step

## AAZ*-ValCit-MMAE
  conjugation yield: 50.8% yield

## NH2^+-ValCit-MMAE Negative Control
  conjugation yield: 56.4% yield
